The source of these data is patent publication US20050130151.

For part of these data: No signal at the amounts used counts as a negative. The exact form of at least one protein or probe is not confirmed.

One series deals with FMRP KH1/KH2 double Ile-to-Asn mutant (full length) I304N plus equivalent KH1 Ile to Asn (Homo sapiens). Description: filter binding. The note with it: nearly as well as wild-type FMRP; purified recombinant protein; protein details: C-terminal His, baculovirus; label: 32P-UTP.
Consider “GAGCGGCUGCGGUGUGGAAGGAGUGGCUGGGUUGCGCACCUUGGCUUC [sc1]”, for which the binding result is listed as “binds”.

A further series concerns FMRP (full length, iso7) (Homo sapiens). Description: filter binding. The note with it: Li+ replacing K+ abrogates binding; purified recombinant protein; label: 32P-UTP.
Take “GAGCGGCUGCGGUGUGGAAGGAGUGGCUGGGUUGCGCACCUUGGCUUC [sc1]”: the binding result is given as “no binding”.

Staying with this series, now noted: Li+ replacing K+; purified recombinant protein; label: 32P-UTP.
Regarding “UGGCUCGUUGGUUGGGGUGGGUGGCCA [Potassium channel Kv3.1 5'UTR site]”, the binding result was “no binding”.

For “CCCUUCUAGGGGAGGCGGGUGGGGGAG [GT334/TMEM1/EHOC-1 site 1 3'UTR]”, the binding result is given as “no binding”.

“GACGAGCGCAGGGAGGAGGAGCAGGAGAGGCAG [Mint coding site]”: the binding result is reported as “no binding”.

With “UCGCGGCGCUGGGAGAGGGCGGAGGGGGAGGCGG [MAP1B 5'UTR site]”, the binding result was “no binding”.

Regarding “GGGGAGGCAGGAGGAGGCCGAGG [Guanine nucleotide exchange factor (KIAA0763) 3'UTR site]”, the binding result is given as “no binding”.

In the case of “UGUCUGGCAGAGGAAAGGGUGGAAAGGGU [Histone H4 coding site]”, the binding result was “no binding”.

Take “AGAGCGUGGAGGUGUGGAAGGAGUGGCUGCUCU [ID3 3'UTR site]”: the binding result was “no binding”.

With “GGCUACUUUGGGGAGGUGUGGGAAGGCCU [Srm tyrosine kinase coding site]”, the binding result is recorded as “no binding”.

For the sequence “GGGGGGUGAUUGGAAGGGAGGGAGGUG [Semaphorin 3F 3'UTR site]”, the binding result is on record as “no binding”.

As to “GUUGGGUUGAGGGUGGGAAGGAAGGUAG [Arginine vasopressin receptor V1a 3'UTR site]”, the binding result was “no binding”.

Staying with this series, now noted: weaker than sc1; SEQ assignment by order; purified recombinant protein; label: 32P-UTP.
With AAGGGUAGGAUGGGAUGG [sc2], the binding result is recorded as “binds”.

In the case of GUGGGUGGUUGGGUGG [sc4], the binding result is on record as “binds”.

With AAGGUAGGGUGGUUGG [sc6], the binding result is “binds”.

For AAGGUAGGGUGGUUGG [sc3], the binding result was “binds”.

As to GAGGAGUUGGAAGGAUGGG [sc5], the binding result was “binds”.

The next series concerns Nova (KH-type RNA binding protein). Description: EMSA. Particulars: 100 nM Nova, no shift; purified recombinant protein; label: 32P-UTP. On the technique in general: A gel shift assay detects complexes by their altered migration in electrophoresis.
Regarding “GAGCGGCUGCGGUGUGGAAGGAGUGGCUGGGUUGCGCACCUUGGCUUC [sc1]”, the binding result is listed as “no binding”.
